Negatives hold for the conditions tested.
How the values were obtained:
[1] = molecular target: bovine serum albumin (bovine) (UniProt P02769); assay: EMSA; details: increasing BSA, data not shown; 25 mM Tris pH 7.5, 75 mM NaCl, 50 mM arginine, 0.1 mM TCEP, 0.1 ug/ul BSA, room temperature 30 min; 0.05 uM probe, 0-2.5 uM protein; native 10% PAGE in TBE; commercial protein; label: 5'-32P
[2] = molecular target: PARylated PARP1-FL (human) (UniProt P09874); assay: EMSA; details: NAD+; 25 mM Tris pH 7.5, 75 mM NaCl, 50 mM arginine, 0.1 mM TCEP, 0.1 ug/ul BSA, room temperature 30 min; 0.05 uM probe, 0-2.5 uM protein; native 10% PAGE in TBE; recombinant protein; residues 1-1014; protein details: His; label: 5'-32P

Chains of the proteins cited; added tags and fusions are not shown. Residues count along the entry.
UniProt P02769, 25-607: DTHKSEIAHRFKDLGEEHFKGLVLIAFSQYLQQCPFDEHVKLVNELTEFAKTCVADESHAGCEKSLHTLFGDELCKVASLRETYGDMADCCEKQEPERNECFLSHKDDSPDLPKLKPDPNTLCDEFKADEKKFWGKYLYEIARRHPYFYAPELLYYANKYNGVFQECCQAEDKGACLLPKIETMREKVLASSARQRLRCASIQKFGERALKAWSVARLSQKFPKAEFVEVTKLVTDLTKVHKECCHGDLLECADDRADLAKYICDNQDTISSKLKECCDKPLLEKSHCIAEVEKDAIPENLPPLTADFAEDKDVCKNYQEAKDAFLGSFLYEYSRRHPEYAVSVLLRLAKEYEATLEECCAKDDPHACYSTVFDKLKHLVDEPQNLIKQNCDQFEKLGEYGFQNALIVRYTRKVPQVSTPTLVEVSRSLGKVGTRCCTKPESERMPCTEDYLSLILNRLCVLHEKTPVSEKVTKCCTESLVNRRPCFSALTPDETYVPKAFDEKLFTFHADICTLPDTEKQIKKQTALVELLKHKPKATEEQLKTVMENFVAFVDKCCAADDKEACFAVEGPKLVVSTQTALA
UniProt P09874, whole entry: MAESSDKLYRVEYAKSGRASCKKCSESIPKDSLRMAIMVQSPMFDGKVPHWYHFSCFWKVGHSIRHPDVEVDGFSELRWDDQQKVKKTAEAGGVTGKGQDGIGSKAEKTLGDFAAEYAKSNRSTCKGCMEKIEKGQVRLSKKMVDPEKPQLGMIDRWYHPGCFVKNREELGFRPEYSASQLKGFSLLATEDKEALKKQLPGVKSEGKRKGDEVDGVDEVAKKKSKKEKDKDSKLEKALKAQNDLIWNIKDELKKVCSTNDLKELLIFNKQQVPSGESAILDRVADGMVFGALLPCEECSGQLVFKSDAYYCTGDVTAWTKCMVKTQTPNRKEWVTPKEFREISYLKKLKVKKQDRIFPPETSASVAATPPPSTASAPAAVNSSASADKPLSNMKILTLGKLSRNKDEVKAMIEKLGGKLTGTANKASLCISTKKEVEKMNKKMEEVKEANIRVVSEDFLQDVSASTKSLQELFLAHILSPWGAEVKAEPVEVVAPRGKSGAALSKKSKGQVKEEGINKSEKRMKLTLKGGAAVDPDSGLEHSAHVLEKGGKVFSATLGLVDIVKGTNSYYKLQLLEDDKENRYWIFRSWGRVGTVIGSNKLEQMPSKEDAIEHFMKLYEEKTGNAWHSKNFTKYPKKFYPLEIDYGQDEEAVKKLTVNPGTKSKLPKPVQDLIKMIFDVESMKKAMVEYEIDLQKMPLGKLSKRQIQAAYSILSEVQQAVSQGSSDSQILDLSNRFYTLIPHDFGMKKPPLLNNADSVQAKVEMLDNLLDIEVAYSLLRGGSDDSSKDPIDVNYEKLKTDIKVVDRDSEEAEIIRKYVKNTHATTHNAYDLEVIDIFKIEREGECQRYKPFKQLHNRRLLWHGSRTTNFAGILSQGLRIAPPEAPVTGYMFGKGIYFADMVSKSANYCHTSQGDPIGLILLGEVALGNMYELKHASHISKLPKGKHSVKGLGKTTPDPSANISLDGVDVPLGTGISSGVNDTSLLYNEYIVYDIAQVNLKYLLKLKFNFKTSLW

UAGGCACCGGCAUCUUGAC [19-mer ssRNA]: no binding [1]; no binding [2].

— publication PMC5787697
